Source: PubChem BioAssay AID652243 (Drosophila RNAi Screening Center, 2013)
The deposit covers about 24,000 reagents; this is an unselected part of those with a known target gene and a result. Over the whole deposit, 246 (1%) were called active. 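Plates not normalised; calls are printed but the firefly/Renilla ratio behind them is not deposited; fold cut for lowering reported inconsistently.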 The raw values are shown without normalisation. Unmarked entries are inactive. Not given: the amount of reagent.

Purpose: 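Knock-downs that decrease or increase androgen receptor reporter signal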 (primary screen)
System: Drosophila S2R+ cells
Reagent: long dsRNA against Drosophila genes
Timing: 72 h (48 h, then 24 h hormone)
Treatment: synthetic androgen R1881 at 10 nM for 24 h
Read-out: 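Per-well raw luminescence of the androgen-driven firefly reporter and of the Renilla control, two replicates each, without normalisation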
Direction: firefly reporter light: higher = more light from androgen-responsive reporter; Renilla control light: higher = more constitutive control signal (cell number, transfection)
Hit rule: 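Across duplicate plates, a knock-down whose log firefly/Renilla ratio shifted a set fold down or up from the GFP/LacZ control mean was a hit; the downward cut appears as both 1.5 and 3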
Meaning of the calls: active = hit: reporter lowered or raised; inactive = no hit

Depletion of UQCR-14 [DRSC19870] gave: firefly reporter light, replicate 1 = 6.09e5; firefly reporter light, replicate 2 = 6.26e5; Renilla control light, replicate 1 = 3.99e6; Renilla control light, replicate 2 = 3.25e6.
UQCR-14 [DRSC25269] showed firefly reporter light, replicate 1 = 6.84e5; firefly reporter light, replicate 2 = 7.58e5; Renilla control light, replicate 1 = 1.16e6; Renilla control light, replicate 2 = 1.33e6.
For CG7183 [DRSC16210], the values are firefly reporter light, replicate 1 = 1.17e5; firefly reporter light, replicate 2 = 71943; Renilla control light, replicate 1 = 9.45e5; Renilla control light, replicate 2 = 6.78e5.
bab1 [DRSC08709] gave firefly reporter light, replicate 1 = 93792; firefly reporter light, replicate 2 = 94269; Renilla control light, replicate 1 = 1.68e6; Renilla control light, replicate 2 = 1.96e6.
With knock-down of bab1 [DRSC21882] the results were firefly reporter light, replicate 1 = 4.79e5; firefly reporter light, replicate 2 = 4.10e5; Renilla control light, replicate 1 = 8.36e5; Renilla control light, replicate 2 = 1.03e6.
bab1 [DRSC25457] scored firefly reporter light, replicate 1 = 1.05e6; firefly reporter light, replicate 2 = 1.33e6; Renilla control light, replicate 1 = 1.08e6; Renilla control light, replicate 2 = 1.01e6.
After knock-down of CG3119 [DRSC38929] the results were firefly reporter light, replicate 1 = 6.54e5; firefly reporter light, replicate 2 = 6.57e5; Renilla control light, replicate 1 = 1.06e6; Renilla control light, replicate 2 = 9.93e5.
After knock-down of CG3566 [DRSC18311] the results were firefly reporter light, replicate 1 = 3.12e5; firefly reporter light, replicate 2 = 3.37e5; Renilla control light, replicate 1 = 2.44e6; Renilla control light, replicate 2 = 1.71e6.
CG3566 [DRSC29311] gave firefly reporter light, replicate 1 = 5.38e5; firefly reporter light, replicate 2 = 4.30e5; Renilla control light, replicate 1 = 1.02e6; Renilla control light, replicate 2 = 9.06e5.
For Pits [DRSC19385], the values are firefly reporter light, replicate 1 = 6.28e5; firefly reporter light, replicate 2 = 5.06e5; Renilla control light, replicate 1 = 4.33e6; Renilla control light, replicate 2 = 3.94e6.
After knock-down of Pits [DRSC25013] the results were firefly reporter light, replicate 1 = 8.82e5; firefly reporter light, replicate 2 = 8.41e5; Renilla control light, replicate 1 = 8.70e5; Renilla control light, replicate 2 = 8.28e5.
pAbp [DRSC07659] scored firefly reporter light, replicate 1 = 4.04e5; firefly reporter light, replicate 2 = 5.69e5; Renilla control light, replicate 1 = 1.41e6; Renilla control light, replicate 2 = 1.31e6.
Depletion of gl [DRSC27242] gave: firefly reporter light, replicate 1 = 1.87e5; firefly reporter light, replicate 2 = 1.86e5; Renilla control light, replicate 1 = 4.13e5; Renilla control light, replicate 2 = 4.43e5.
For CG13016 [DRSC06271] the deposit lists firefly reporter light, replicate 1 = 51663; firefly reporter light, replicate 2 = 72111; Renilla control light, replicate 1 = 5.36e5; Renilla control light, replicate 2 = 5.36e5.

Single entries from above.
Result for Pits [DRSC25013] in “Renilla control light, replicate 1”: 8.70e5
Entry for UQCR-14 [DRSC25269] in “firefly reporter light, replicate 1”: 6.84e5
